These are yes or no findings as the source states them, for the method shown. In cells and extracts the contact can be indirect. A result given as binding can be weak or reduced; the word gives no strength.

By UniProt entry, the sequences of proteins in these tests, tags left out. Where a name states a change or a piece, a line headed by the entry shows the natural chain unless it says otherwise.
UniProt Q15554: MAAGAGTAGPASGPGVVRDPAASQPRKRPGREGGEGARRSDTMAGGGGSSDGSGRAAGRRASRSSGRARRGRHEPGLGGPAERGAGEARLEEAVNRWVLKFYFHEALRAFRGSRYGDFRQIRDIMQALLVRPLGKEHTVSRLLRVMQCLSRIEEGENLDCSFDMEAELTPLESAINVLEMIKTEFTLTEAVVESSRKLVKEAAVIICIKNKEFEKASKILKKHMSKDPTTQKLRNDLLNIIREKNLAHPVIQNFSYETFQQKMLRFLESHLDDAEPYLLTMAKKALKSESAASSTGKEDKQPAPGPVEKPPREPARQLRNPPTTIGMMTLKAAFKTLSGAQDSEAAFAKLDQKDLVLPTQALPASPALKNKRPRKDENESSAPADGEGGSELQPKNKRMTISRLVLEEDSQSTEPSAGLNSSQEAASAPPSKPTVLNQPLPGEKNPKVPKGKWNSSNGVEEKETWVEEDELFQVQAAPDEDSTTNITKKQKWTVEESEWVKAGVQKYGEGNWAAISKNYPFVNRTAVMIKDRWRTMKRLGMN
UniProt O43524: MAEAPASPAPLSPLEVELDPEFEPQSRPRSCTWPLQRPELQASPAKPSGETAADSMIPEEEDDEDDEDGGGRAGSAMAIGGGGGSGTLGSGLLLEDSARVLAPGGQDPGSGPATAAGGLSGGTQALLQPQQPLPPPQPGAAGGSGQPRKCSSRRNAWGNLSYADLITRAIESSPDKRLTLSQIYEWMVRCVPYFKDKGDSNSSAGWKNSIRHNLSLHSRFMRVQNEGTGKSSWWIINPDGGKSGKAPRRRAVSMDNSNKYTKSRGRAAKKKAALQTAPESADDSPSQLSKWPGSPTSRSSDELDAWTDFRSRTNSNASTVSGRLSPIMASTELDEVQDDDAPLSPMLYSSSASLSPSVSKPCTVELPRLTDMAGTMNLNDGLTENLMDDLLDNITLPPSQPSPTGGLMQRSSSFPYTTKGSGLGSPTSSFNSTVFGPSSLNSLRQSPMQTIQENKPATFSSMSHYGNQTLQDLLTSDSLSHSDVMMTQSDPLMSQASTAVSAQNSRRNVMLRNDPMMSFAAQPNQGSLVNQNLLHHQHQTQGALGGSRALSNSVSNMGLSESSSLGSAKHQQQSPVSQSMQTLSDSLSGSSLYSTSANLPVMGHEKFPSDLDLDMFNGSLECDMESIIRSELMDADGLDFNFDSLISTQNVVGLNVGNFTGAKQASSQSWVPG

The experiment deals with telomeric repeat binding factor 2 (TRF2) (human (endogenous in skeletal muscle biopsies and BJ-HELT fibroblasts)) (UniProt Q15554). The experiment can be described thus: proximity ligation.

Regarding “FOXO3a ΔCR2C (pWPIR-ΔCR2C-GFP) (from UniProt O43524)”, the binding entry is “binds”.

“FOXO3a ΔCR3 (pWPIR-ΔCR3-GFP) (from UniProt O43524)”: the binding entry is recorded as “binds”.

(Values after article doi:10.1101/2021.08.04.454762.)
